# Measurements reported in PubChem BioAssay AID1224827 (NIAID, 2016)
# Aim: 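Retest primary hits on a TNF reporter with six siRNAs per gene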 (follow-up of hits)
# Cell system: RAW264.7 G9 mouse macrophage reporter clone
# Reagent: single siRNA against mouse genes, 100 nM siRNA
# Duration: siRNA for 2 days, then LPS about 16 h
# Challenge: bacterial lipopolysaccharide (LPS), 10 ng/ml, cells fixed after overnight (about 16 h) stimulation
# Measured: 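TNF promoter reporter red fluorescence in nuclei, background subtracted, normalised per plate and to non-targeting control siRNA, as z-scores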
# Reading the numbers: TNF reporter z-score, mean and TNF reporter z-score: higher = stronger Tnf promoter reporter signal; gene median z, three same-vendor siRNAs: higher = stronger Tnf reporter signal for the gene
# Rule for the call: 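Active siRNA: replicate-mean z-score of 2 or more, or -2 or less; no calls for control wells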
# Here is an unselected part of about 3,800 deposited reagents. About 2,200 of all reagents (57%) count as active. 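Active means a strong reporter change in either direction; calls are per siRNA, not per gene; qiagen siRNAs gave weaker effects.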 The numbers tell different reagents against one gene apart. Reagent sequences are not shown.
Target gene,siRNA no.,"TNF reporter z-score, mean","gene median z, three same-vendor siRNAs","TNF reporter z-score, repeat 1","TNF reporter z-score, repeat 2",outcome
Ssb (GeneID 20823),1,-2.79,-3.45,-3.16,-2.41,active
Ssb (GeneID 20823),2,-3.25,-3.45,-4.43,-2.08,active
Ssb (GeneID 20823),3,-4.06,-3.45,-3.73,-4.39,active
Ssb (GeneID 20823),4,4.3,0.521,7.76,0.851,active
Ssb (GeneID 20823),5,0.93,0.521,1.67,0.19,inactive
Ssb (GeneID 20823),6,-1.8,0.521,-2.07,-1.53,inactive
Dnajb4 (GeneID 67035),1,4.46,0.0216,4.2,4.72,active
Dnajb4 (GeneID 67035),2,0.0216,0.0216,-1.61,1.65,inactive
Dnajb4 (GeneID 67035),3,-3.04,0.0216,-2.94,-3.14,active
Dnajb4 (GeneID 67035),4,2.9,1.3,5.31,0.495,active
Dnajb4 (GeneID 67035),5,0.993,1.3,2.76,-0.778,inactive
Dnajb4 (GeneID 67035),6,0.797,1.3,2.1,-0.502,inactive
Rps6kc1 (GeneID 320119),1,-0.501,-1.19,-0.865,-0.137,inactive
Rps6kc1 (GeneID 320119),2,-0.756,-1.19,-1.52,0.00755,inactive
Rps6kc1 (GeneID 320119),3,-3.29,-1.19,-3.26,-3.32,active
Rps6kc1 (GeneID 320119),4,3.89,2.31,6.61,1.18,active
Rps6kc1 (GeneID 320119),5,1.27,2.31,3.44,-0.895,inactive
Rps6kc1 (GeneID 320119),6,1.41,2.31,4.24,-1.42,inactive
Cd300c (GeneID 387565),1,4.7,-1.47,1.97,7.42,active
Cd300c (GeneID 387565),2,-2.2,-1.47,-2.31,-2.08,active
Cd300c (GeneID 387565),3,-2.13,-1.47,-3.4,-0.861,active
Cd300c (GeneID 387565),4,3.58,0.244,6.4,0.755,active
Cd300c (GeneID 387565),5,3.02,0.244,6.31,-0.267,active
Cd300c (GeneID 387565),6,-3.96,0.244,-4.65,-3.27,active
Tmem139 (GeneID 109218),1,1.56,-1.46,2.18,0.926,inactive
Tmem139 (GeneID 109218),2,-1.46,-1.46,-1.64,-1.27,inactive
Tmem139 (GeneID 109218),3,-4.34,-1.46,-4.42,-4.27,active
Tmem139 (GeneID 109218),4,4.67,0.635,8.24,1.11,active
Tmem139 (GeneID 109218),5,1.44,0.635,2.71,0.165,inactive
Tmem139 (GeneID 109218),6,-1.14,0.635,-0.86,-1.41,inactive
Lrrc19 (GeneID 100061),1,-2.62,-2.63,-1.97,-3.27,active
Lrrc19 (GeneID 100061),2,-2.63,-2.63,-2.22,-3.05,active
Lrrc19 (GeneID 100061),3,-3.24,-2.63,-1.9,-4.58,active
S1pr2 (GeneID 14739),1,0.583,-3.74,-0.29,1.46,inactive
S1pr2 (GeneID 14739),2,-3.74,-3.74,-3.49,-3.99,active
S1pr2 (GeneID 14739),3,-4.6,-3.74,-4.59,-4.6,active
S1pr2 (GeneID 14739),4,2.42,0.0668,4.75,0.0805,active
S1pr2 (GeneID 14739),5,0.772,0.0668,1.49,0.0531,inactive
S1pr2 (GeneID 14739),6,-1.94,0.0668,-1.24,-2.65,inactive

10 entries from above, sorted by “TNF reporter z-score, repeat 2”, ascending:
Target gene,siRNA no.,"TNF reporter z-score, mean","gene median z, three same-vendor siRNAs","TNF reporter z-score, repeat 1","TNF reporter z-score, repeat 2",outcome
Ssb (GeneID 20823),3,-4.06,-3.45,-3.73,-4.39,active
Dnajb4 (GeneID 67035),3,-3.04,0.0216,-2.94,-3.14,active
Ssb (GeneID 20823),1,-2.79,-3.45,-3.16,-2.41,active
Ssb (GeneID 20823),2,-3.25,-3.45,-4.43,-2.08,active
Ssb (GeneID 20823),6,-1.8,0.521,-2.07,-1.53,inactive
Ssb (GeneID 20823),5,0.93,0.521,1.67,0.19,inactive
Dnajb4 (GeneID 67035),4,2.9,1.3,5.31,0.495,active
Ssb (GeneID 20823),4,4.3,0.521,7.76,0.851,active
Dnajb4 (GeneID 67035),2,0.0216,0.0216,-1.61,1.65,inactive
Dnajb4 (GeneID 67035),1,4.46,0.0216,4.2,4.72,active

Continued:
Target gene,siRNA no.,"TNF reporter z-score, mean","gene median z, three same-vendor siRNAs","TNF reporter z-score, repeat 1","TNF reporter z-score, repeat 2",outcome
Rpl37a (GeneID 19981),1,-1.37,-5.08,-1.66,-1.08,inactive
Rpl37a (GeneID 19981),2,-5.15,-5.08,-5.15,-5.15,active
Rpl37a (GeneID 19981),3,-5.66,-5.08,-6.31,-5.01,active
Rpl37a (GeneID 19981),4,-1.41,-2.68,0.0856,-2.9,inactive
Rpl37a (GeneID 19981),5,-2.04,-2.68,-1.26,-2.83,active
Rpl37a (GeneID 19981),6,-3.14,-2.68,-2.53,-3.75,active
Syk (GeneID 20963),1,-1.04,-1.8,-1.81,-0.281,inactive
Syk (GeneID 20963),2,-2.23,-1.8,-1.8,-2.66,active
Syk (GeneID 20963),3,-2.23,-1.8,-3.5,-0.955,active
Syk (GeneID 20963),4,0.0571,-1.89,2.09,-1.97,inactive
Syk (GeneID 20963),5,-1.73,-1.89,-2.19,-1.27,inactive
Syk (GeneID 20963),6,-1.97,-1.89,-1.8,-2.13,inactive
Dock2 (GeneID 94176),1,-2.77,-3.33,-2.72,-2.82,active
Dock2 (GeneID 94176),2,-3.65,-3.33,-4.81,-2.48,active
Dock2 (GeneID 94176),3,-4.08,-3.33,-3.85,-4.32,active
Dock2 (GeneID 94176),4,2.32,0.562,5.04,-0.391,active
Dock2 (GeneID 94176),5,1.53,0.562,3.3,-0.24,inactive
Dock2 (GeneID 94176),6,0.0234,0.562,1.36,-1.32,inactive
Tceal6 (GeneID 66104),1,3.61,0.686,6.46,0.769,active
Tceal6 (GeneID 66104),2,2.93,0.686,5.42,0.436,active
Tceal6 (GeneID 66104),3,0.00825,0.686,0.602,-0.586,inactive
Rai2 (GeneID 24004),1,0.551,-0.0606,0.0982,1,inactive
Rai2 (GeneID 24004),2,-0.245,-0.0606,-0.219,-0.27,inactive
Rai2 (GeneID 24004),3,-0.341,-0.0606,0.169,-0.85,inactive
Rai2 (GeneID 24004),4,2.72,-0.57,6.53,-1.1,active
Rai2 (GeneID 24004),5,0.497,-0.57,1.03,-0.0392,inactive
Rai2 (GeneID 24004),6,-3.7,-0.57,-4.37,-3.02,active
Psmb5 (GeneID 19173),1,-2.1,-2.12,-2.32,-1.88,active
Psmb5 (GeneID 19173),2,-2.16,-2.12,-2.8,-1.52,active
Psmb5 (GeneID 19173),3,-2.63,-2.12,-3.36,-1.91,active
Psmb5 (GeneID 19173),4,6.6,-1.7,10.6,2.57,active
Psmb5 (GeneID 19173),5,-1.7,-1.7,-1.37,-2.03,inactive
Psmb5 (GeneID 19173),6,-2.75,-1.7,-2.53,-2.96,active
Ndufaf4 (GeneID 68493),1,-1.02,-4.02,-1.65,-0.39,inactive
Ndufaf4 (GeneID 68493),2,-4.07,-4.02,-3.74,-4.39,active
Ndufaf4 (GeneID 68493),3,-5.17,-4.02,-4.3,-6.03,active
Ndufaf4 (GeneID 68493),4,3,0.527,4.74,1.27,active
Ndufaf4 (GeneID 68493),5,1.1,0.527,2.84,-0.645,inactive
Ndufaf4 (GeneID 68493),6,-0.545,0.527,-0.876,-0.214,inactive
